In paper PMC5031558:

B1: SPATA2 (endogenous) (protein, UniProt Q9UM82 1-520)
chain: MGKPSSMDTKFKDDLFRKYVQFHESKVDTTTSRQRPGSDECLRVAASTLLSLHKVDPFYRFRLIQFYEVVESSLRSLSSSSLRALHGAFSMLETVGINLFLYPWKKEFRSIKTYTGPFVYYVKSTLLEEDIRAILSCMGYTPELGTAYKLRELVETLQVKMVSFELFLAKVECEQMLEIHSQVKDKGYSELDIVSERKSSAEDVRGCSDALRRRAEGREHLTASMSRVALQKSASERAAKDYYKPRVTKPSRSVDAYDSYWESRKPPLKASLSLRKEPVATDVGDDLKDEIIRPSPSLLTMASSPHGSPDVLPPASPSNGPALLRGTYFSTQDDVDLYTDSEPRATYRRQDALRPDVWLLRNDAHSLYHKRSPPAKESALSKCQSCGLSCSSSLCQRCDSLLTCPPASKPSAFPSKASTHDSLAHGASLREKYPGQTQGLDRLPHLHSKSKPSTTPTSRCGFCNRPGATNTCTQCSKVSCDACLSAYHYDPCYKKSELHKFMPNNQLNYKSTQLSHLVYR
B2: SPATA2-like (SPATA2L) (protein, UniProt Q8IUW3 1-424)
chain: MGSSSLSEDYRQCLERELRRGRAGVCGDPSLRAVLWQILVEDFDLHGALQDDALALLTDGLWGRADLAPALRGLARAFELLELAAVHLYLLPWRKEFTTIKTFSGGYVHVLKGVLSDDLLLKSFQKMGYVRRDSHRLMVTALPPACQLVQVALGCFALRLECEILGEVLAQLGTSVLPAEELLQARRASGDVASCVAWLQQRLAQDEEPPPLPPRGSPAAYRAPLDLYRDLQEDEGSEDASLYGEPSPGPDSPPAELAYRPPLWEQSAKLWGTGGRAWEPPAEELPQASSPPYGALEEGLEPEPSAFSFLSLRRELSRPGDLATPESSAAASPRRIRAEGVPASAYRSVSEPPGYQAHSCLSPGALPTLCCDTCRQLHAAHCAALPACRPGHSLRVLLGDAQRRLWLQRAQMDTLLYNSPGARP
B3: TAK1 (protein, UniProt O43318 1-606)
chain: MSTASAASSSSSSSAGEMIEAPSQVLNFEEIDYKEIEVEEVVGRGAFGVVCKAKWRAKDVAIKQIESESERKAFIVELRQLSRVNHPNIVKLYGACLNPVCLVMEYAEGGSLYNVLHGAEPLPYYTAAHAMSWCLQCSQGVAYLHSMQPKALIHRDLKPPNLLLVAGGTVLKICDFGTACDIQTHMTNNKGSAAWMAPEVFEGSNYSEKCDVFSWGIILWEVITRRKPFDEIGGPAFRIMWAVHNGTRPPLIKNLPKPIESLMTRCWSKDPSQRPSMEEIVKIMTHLMRYFPGADEPLQYPCQYSDEGQSNSATSTGSFMDIASTNTSNKSDTNMEQVPATNDTIKRLESKLLKNQAKQQSESGRLSLGASRGSSVESLPPTSEGKRMSADMSEIEARIAATTAYSKPKRGHRKTASFGNILDVPEIVISGNGQPRRRSIQDLTVTGTEPGQVSSRSSSPSVRMITTSGPTSEKPTRSHPWTPDDSTDTNGSDNSIPMAYLTLDHQLQPLAPCPNSKESMAVFEQHCKMAQEYMKVQTEIALLLQRKQELVAELDQDEKDQQNTSRLVQEHKKLLDENKSLSTYYQQCKKQLEVIRSQQQKRQGTS

What was measured:
[1] = target: FLAG-CYLD wild type (human) (UniProt Q9NQC7); assay: affinity purification with mass spectrometry; FLAG-CYLD WT or ΔB-box purified with anti-FLAG from CYLD KO U2OS/NOD2 cell lysates, LC-MS/MS
FLAG-CYLD ΔB-box (human) = target: T1, FLAG-CYLD ΔB-box (human) (UniProt Q9NQC7); assay: as above
T1 sequence: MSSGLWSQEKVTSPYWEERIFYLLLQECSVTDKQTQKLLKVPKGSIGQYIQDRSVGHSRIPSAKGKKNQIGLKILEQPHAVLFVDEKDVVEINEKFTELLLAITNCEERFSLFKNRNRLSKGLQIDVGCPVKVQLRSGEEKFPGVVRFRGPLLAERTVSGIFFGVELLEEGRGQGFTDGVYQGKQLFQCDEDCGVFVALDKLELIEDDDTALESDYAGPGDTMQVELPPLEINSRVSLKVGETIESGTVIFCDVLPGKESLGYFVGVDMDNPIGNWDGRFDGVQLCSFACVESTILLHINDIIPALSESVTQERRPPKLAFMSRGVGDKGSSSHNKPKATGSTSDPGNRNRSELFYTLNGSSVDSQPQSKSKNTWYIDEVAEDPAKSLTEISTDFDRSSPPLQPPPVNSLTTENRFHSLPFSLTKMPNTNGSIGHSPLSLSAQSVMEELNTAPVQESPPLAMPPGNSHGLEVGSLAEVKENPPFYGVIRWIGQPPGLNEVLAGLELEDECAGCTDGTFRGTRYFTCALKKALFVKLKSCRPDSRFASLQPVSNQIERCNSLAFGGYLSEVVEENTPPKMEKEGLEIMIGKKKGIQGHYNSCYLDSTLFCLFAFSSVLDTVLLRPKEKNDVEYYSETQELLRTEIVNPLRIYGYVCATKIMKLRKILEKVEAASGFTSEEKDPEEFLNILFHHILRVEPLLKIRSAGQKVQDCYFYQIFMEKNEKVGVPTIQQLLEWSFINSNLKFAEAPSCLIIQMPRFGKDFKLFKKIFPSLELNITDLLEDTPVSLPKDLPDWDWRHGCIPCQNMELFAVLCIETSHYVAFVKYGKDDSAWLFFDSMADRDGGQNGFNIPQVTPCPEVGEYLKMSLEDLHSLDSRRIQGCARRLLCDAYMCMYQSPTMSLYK

| Binder | binding [1] | binding (FLAG-CYLD ΔB-box (human)) |
| --- | --- | --- |
| B1 | binds |  |
| B2 | binds |  |
| B3 | binds | binds |

These are yes or no findings as the source states them, for the method shown. Binding seen in cells or lysates may run through a third protein. A yes stands for co-enrichment or nearness to the bait. Other partners may have been found. For some of these results: Sequences can lack the tags named with a protein.
